This note sets out measurements from PubChem BioAssay AID2685 (National Center for Advancing Translational Sciences (NCATS), 2010).

The test is described as follows: qHTS Assay for Lipid Storage Modulators in Drosophila S3 Cells.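 For cell number change: cells counted by Cell Tracker Red CMTPX staining in the red channel.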 The settings on record: BODIPY lipid droplet fluorescence, 18-24 h; for cell number change: measured here: cell count max response, cells fed with added oleic acid. Summed up: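 Drosophila S3 cells loaded with oleic acid (400 uM, as added) and compounds at several concentrations; lipid droplets imaged by 488-nm laser-scanning cytometry, 500–530 nm intensity and object ratio to cell channel. Percent activity normalized to 20 uM Triacsin C.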

The mark [1] stands for this setting: measured here: lipid fluorescence (Fed channel) AC50, cells fed with added oleic acid.
The mark [2] stands for this setting: measured here: cell number channel AC50, cells fed with added oleic acid.

SMILES strings stand for the structures. Several values for one entry are separate records, joined by “and”; a condition that tells them apart may be missing. Identical values can stand only once. The list shows a part of the results. These are further read-outs of the screen, such as a control signal, another cell line or another target. No call is given for them. Compounds called inactive in the main read-out are mostly missing here. Words in brackets tell the shape of the fitted curve; partial curves, single points and poor fits give uncertain potencies.

As a reminder, the AC50 is the concentration at which the activity in the assay is half-maximal. A high value points to activity only at high concentration. For `COc1ccccc1OCC(=O)Nc1ccc(S(=O)(=O)Nc2nccs2)cc1`, the cell number change was 28.9%. The AC50 under setting [1] was 35.5 µM [falling, single point].
`O=C(NCc1ccncc1)c1ccc(NS(=O)(=O)c2cccc([N+](=O)[O-])c2)cc1`: the cell number change amounted to 2.56%. Moreover, under setting [1], the AC50 is 6.51 µM [falling, single point].
`COC(=O)C1=C(N)Oc2cc(C)[nH]c(=O)c2C1c1ccncc1` (stereo unspecified): the AC50 was 1.84 µM [rising, partial curve] under setting [2] and 23.1 µM [rising, partial curve] under setting [1].
For `CC(C)C[C@H](NC(=O)OC(C)(C)C)c1n[nH]c(=S)n1N`, the cell number change was 1.58%.
`CCOP(=O)(OCC)C(NC(=O)Nc1ccc(C)c(Cl)c1)c1ccccc1` (stereo unspecified): the cell number change was -2%.
Take `O=C(CNC1CCCC1)Nc1ccc(S(=O)(=O)N2CCCCC2)cc1`: the cell number change worked out at 2.61%. For the same molecule, the AC50 under setting [1] was 6.51 µM [falling, single point].
For the molecule `S=c1[nH]nc(-c2ccn[nH]2)n1-c1ccccc1Cl`, the cell number change is -4%.
On to `CCCCn1c(SCc2nc3ccccc3s2)nc2cc(S(N)(=O)=O)ccc21`, for which the cell number change is 120%. In addition, the AC50 under setting [2] is 2.91 µM [rising, partial curve]. Besides, the AC50 under setting [1] is 0.103 µM [rising, full curve, poor fit].
With `Cn1c(SCC(=O)c2ccc(F)cc2)nnc1-c1ccccn1`, the cell number change is 22.1%. Further, the AC50 under setting [1] is 1.03 µM [rising, partial curve].
With `Cc1cccc2c(SCC(N)=O)nc(-c3ccccc3)nc12`, the cell number change stood at 42.7%. Moreover, the AC50 under setting [2] was 32.6 µM [rising, single point].
Turning to `Cc1ccc(C)c(S(=O)(=O)N2CCN(C(=O)CCNS(=O)(=O)c3ccc(C)c(C)c3)CC2)c1`, the cell number change was -21.1%. Besides, the AC50 under setting [1] is 32.6 µM [falling, single point].
Consider `O=C(C1CCCO1)N(c1cccc(Cl)c1)C1C=CS(=O)(=O)C1` (stereo unspecified), for which the cell number change is -4.88%.
As to `CC(O)C1CCC2C3CC[C@H]4CC(O)CCC4(C)C3CC3(OCCO3)C12C` (stereo partly specified), the cell number change was -38.9%. In addition, the AC50 under setting [2] is 0.461 µM [falling, partial curve]. Moreover, the AC50 under setting [1] was 5.17 µM [falling, single point].
As to `COCCN(C(=O)CSc1nnc(-c2ccccc2C)n1C)c1c(N)n(Cc2ccccc2)c(=O)[nH]c1=O`, the AC50 under setting [2] is 0.00411 µM [rising, full curve, poor fit].
Take `CCNC(=O)COc1ccc(F)cc1C(=O)c1cnn(-c2ccccc2)c1`: the cell number change worked out at 4.62%. In addition, the AC50 under setting [1] was 6.51 µM [rising, single point].
Consider `CC(C)NC(=O)C1CCN(C(=O)c2cc3sccc3n2Cc2ccc(F)cc2)CC1`, for which the cell number change was -0.817%.
On to `COc1ccc(C2c3c(ncn(CCCO)c3=N)Oc3ccc4ccccc4c32)cc1` (stereo unspecified), for which the cell number change is -10.7%.
Regarding `CC1CCCCN1C(=O)CSc1nnc(-c2ccc(Cl)s2)o1` (stereo unspecified), under setting [2], the AC50 is 6.51 µM [rising, single point].
As to `COc1ccc(C2CC(c3ccc4ccccc4c3)=NN2C(=O)CSc2ncccn2)cc1` (stereo unspecified), the cell number change is -16.4%. Under setting [1], the AC50 is 29.1 µM [falling, single point].
`COc1ccc(CCNC(=O)C2CCN(S(=O)(=O)c3ccc(F)cc3)CC2)cc1`: the cell number change was -1.69%.
As for `Cn1cccc1/C=N\NC(=O)c1cncc(Br)c1`, the cell number change amounted to 17.4%. For the same molecule, the AC50 under setting [1] was 23.1 µM [rising, single point].
As to `COc1ccccc1CNS(=O)(=O)c1ccc2c(c1)CC(C)N2C(=O)C1CCC1` (stereo unspecified), the AC50 under setting [1] is 6.51 µM [falling, partial curve].
With `Cc1c(-c2ccccc2)nc2ccccc2c1C(=O)OCC(=O)Nc1ncc(C(F)(F)F)cc1Cl`, under setting [1], the AC50 was 0.164 µM [rising, full curve, poor fit].
As for `COCCOCC(O)CN1CCN(c2ccccc2)CC1` (stereo unspecified), the cell number change was -35.5%. Also, the AC50 under setting [2] is 20.6 µM [falling, single point].
Take `C=CCNC(=O)C1CCN(c2ccc(S(=O)(=O)N3CCOCC3)cc2Cl)CC1`: the cell number change was -12.4%.
Turning to `Cc1nc2ccc(S(=O)(=O)NCC(=O)N3CCc4ccccc4C3)cc2s1`, the cell number change came out at 54.2%. Further, the AC50 under setting [2] was 6.51 µM [falling, single point]. The AC50 under setting [1] was 6.51 µM [falling, single point].
Consider `CCn1c(SCC(=O)Nc2ccc(OC)c(OC)c2)nc2c(c1=O)SCC2`, for which the cell number change stood at 4.99%. The AC50 under setting [1] was 0.092 µM [falling, full curve, poor fit].
Consider `COc1ccc(/C=C2\SC(=S)N(CC(=O)OCC(=O)Nc3cc(Cl)cc(Cl)c3)C2=O)cc1`, for which the cell number change is 14.8%. The AC50 under setting [1] is 2.59 µM [rising, full curve].
On to `COc1cc(NC(=O)C2Cc3ccccc3CN2S(C)(=O)=O)cc(OC)c1` (stereo unspecified), for which the cell number change amounted to 40.4%. Also, under setting [2], the AC50 was 14.6 µM [rising, partial curve, poor fit].
In the case of `O=C(Cc1cccs1)Nc1ccc(Cl)cc1`, the cell number change is 9.17%. In addition, the AC50 under setting [1] was 10.3 µM [rising, partial curve, poor fit].
Regarding `COc1ccc(CCc2nnc(CCC(=O)NCC3CCCO3)o2)cc1` (stereo unspecified), the cell number change is -84%. Besides, the AC50 under setting [2] is 29.1 µM [falling, single point].
Consider `CCCCC(=O)Nc1ccc(NC(=O)C(C)C)cn1`, for which the cell number change was -19.7%.
Take `CCOC(=O)N1CCC(NC(=O)c2ccc(Cl)cc2)CC1`: the cell number change is -20.8%. Under setting [2], the AC50 is 0.651 µM [falling, full curve, poor fit].
For the molecule `COC(=O)CSc1nc(C)cc(Oc2ccccc2)n1`, the cell number change was -144%. Also, the AC50 under setting [2] is 18.4 µM [falling, partial curve]. Besides, the AC50 under setting [1] was 23.1 µM [falling, partial curve].
In the case of `CCN(C(=O)COC(=O)CNC(=O)c1ccc2ccccc2c1)C1CCS(=O)(=O)C1` (stereo unspecified), the cell number change turned out to be 0.782%.
Regarding `S=c1[nH]nc(COc2ccccc2)n1/N=C/c1ccc(Br)cc1`, the cell number change was 11.1%.
For the molecule `COc1cc(C(c2sc3nc(C)nn3c2O)N2CCC3(CC2)OCCO3)cc(OC)c1OC` (stereo unspecified), the cell number change was 39%. Besides, the AC50 under setting [2] is 11.6 µM [rising, single point]. In addition, under setting [1], the AC50 is 14.6 µM [rising, partial curve].
For `COc1ccccc1NC(=O)c1cc(S(=O)(=O)N2CCOCC2)ccc1Cl`, the cell number change worked out at 0.191%. Further, the AC50 under setting [1] was 1.84 µM [rising, partial curve].
`CCCCCCCCCCCCCCCCn1cc[n+](C)c1`: the cell number change was -75.4% and -65.3%. Further, the AC50 under setting [2] was 2.91 µM [falling, full curve] and 3.66 µM [falling, full curve]. Further, the AC50 under setting [1] was 4.61 µM [falling, full curve] and 2.59 µM [falling, full curve].
Take `COc1cc(OC)c(OC)cc1CN1CCN(c2ccc(F)cc2)CC1`: the cell number change was 23.2%. Moreover, the AC50 under setting [1] was 0.13 µM [falling, full curve, poor fit].
Take `O=C(CN1C(=O)c2ccccc2S1(=O)=O)Nc1ncc([N+](=O)[O-])s1`: the cell number change is 4.65%. Moreover, the AC50 under setting [1] was 6.51 µM [rising, single point].
Turning to `Cc1ccc(CN(Cc2cc3cc(C)ccc3[nH]c2=O)C(=O)N2CCOCC2)cc1`, the cell number change was -20.2%. Also, under setting [1], the AC50 is 20.6 µM [rising, single point].
Take `CCOc1ccc(C(=O)OCC(=O)N(Cc2ccccc2)Cc2ccccc2)cc1OC`: the cell number change is -7.99%. Further, under setting [1], the AC50 was 2.31 µM [rising, partial curve, poor fit].
For `CCC(=O)C1CCCN(C(=O)CCc2nnc(-c3ccc4c(c3)OCO4)o2)C1` (stereo unspecified), the cell number change amounted to 20%. The AC50 under setting [1] was 0.82 µM [rising, full curve, poor fit].
As to `Cc1ccc(NC(=O)Cn2c(O)c(N=NS(=O)(=O)c3ccc(C)cc3)c3ccccc32)cc1`, the cell number change amounted to 17.6%. Further, under setting [1], the AC50 was 25.9 µM [rising, single point].
`CCOc1ccc(CCNC(=O)CCC(=O)N2CCSc3ccccc32)cc1OCC`: the cell number change was -41.5%. Also, under setting [2], the AC50 was 8.2 µM [falling, partial curve, poor fit]. For the same molecule, the AC50 under setting [1] was 2.06 µM [falling, partial curve, poor fit].
Turning to `COc1ccccc1-c1ccc(SCc2ccccc2)nn1`, the cell number change was found to be 34.7%. In addition, the concentration at half-maximal activity (AC50) under setting [2] is 18.4 µM [rising, single point]. Under setting [1], the AC50 is 18.4 µM [rising, single point].
On to `Cn1c(SCC(=O)N2CCN(c3ccccc3)CC2)nnc1-c1ccco1`, for which the cell number change is -19.7%.
With `CCn1c2ccccc2c2cc(NC(=O)CSc3nnc(C4CC4)n3Cc3ccco3)ccc21`, the cell number change was -126%. In addition, the AC50 under setting [2] was 29.1 µM [falling, single point]. Besides, the AC50 under setting [1] is 29.1 µM [falling, single point].
For the molecule `N/C(=N\OC(=O)c1ccc(Cl)cc1)c1ccccn1`, the cell number change stood at 30%. The AC50 under setting [2] was 29.1 µM [rising, single point]. In addition, the AC50 under setting [1] is 23.1 µM [rising, partial curve].
`O=C(O)CCNC(=O)/C(=C/C=C/c1ccccc1)NC(=O)c1ccccc1`: the cell number change is -2.12%. For the same molecule, the AC50 under setting [1] was 0.58 µM [falling, single point].
With `COc1ccc2nc(SC)cc(C)c2c1`, the cell number change amounted to 6.42%. Also, the AC50 under setting [2] is 4.11 µM [falling, single point]. The AC50 under setting [1] is 6.51 µM [falling, single point].
As to `O=C(CSc1nc(-c2ccccc2)cc(C(F)(F)F)n1)NCc1ccco1`, the cell number change was 0.369%. Under setting [1], the AC50 was 20.6 µM [rising, single point].
Regarding `CCCOc1ccccc1C(=O)NCCCC(=O)O`, the cell number change was -0.204%. Also, under setting [1], the AC50 is 2.06 µM [falling, partial curve, poor fit].
In the case of `COCCN(C(=O)COC(=O)c1cc(C)n(-c2ccccc2)c1C)c1c(N)n(Cc2ccccc2)c(=O)[nH]c1=O`, the cell number change stood at 27.1%.
`COC(=O)Cc1c(C(=O)OC)nnn1-c1cccc(C(F)(F)F)c1`: the cell number change turned out to be 27.7%. Moreover, the AC50 under setting [1] was 29.1 µM [rising, partial curve, poor fit].
In the case of `Cc1ccc(C(=O)CSc2nnc(-c3c[nH]c4ccccc34)o2)cc1`, the AC50 under setting [1] is 0.411 µM [rising, partial curve, poor fit].
As to `CC(NC(=O)CCC(=O)NC(C)c1ccccc1)c1ccccc1` (stereo unspecified), the cell number change is 1.62%. Further, under setting [1], the AC50 is 29.1 µM [rising, partial curve, poor fit].
In the case of `Cc1ccc(S(=O)(=O)N2CCCOC2CNC(=O)C(=O)NCCc2c[nH]c3ccccc23)cc1` (stereo unspecified), the cell number change came out at 23.7%. Also, under setting [2], the AC50 was 2.59 µM [rising, single point].
